# PubChem BioAssay AID504784 – Drosophila RNAi Screening Center – 2011
# Assay: 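Fly genes whose silencing alters how much lipid cells keep in droplets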 (primary screen)
# Cells: Drosophila Kc167 embryonic cells
# Reagents: long dsRNA against Drosophila genes, about 250 ng dsRNA per well
# Duration: 4 days
# Conditions: cells fed 400 µM oleic acid bound to BSA
# Measurement: 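Cells imaged and segmented; ratio of lipid droplet area to nuclear area, log-transformed, then normalised as a B-score over the screen; higher means more stored lipid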
# Reading the numbers: droplet/nuclear area B-score: higher = more stored lipid (overstorage)
# The screen tested about 17,000 reagents; shown is a random part of those that have a named target and a result. 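Each column is one replicate's B-score; the combined score over replicates was not deposited, so single values may mislead.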 Reagent sequences are not shown.
gene,dsRNA,"droplet/nuclear area B-score, replicate 1","droplet/nuclear area B-score, replicate 2","droplet/nuclear area B-score, replicate 3"
Mt2,DRSC03374,0.0398,2.18,
puc,DRSC17034,0.0388,3.07,
Ocrl,DRSC18576,0.945,,
VepD,DRSC22318,-0.938,0.252,
CG5687,DRSC08568,-0.316,-0.462,
Ilp1,DRSC10174,0.516,1.01,
lgs,DRSC17152,-0.174,,
CG12516,DRSC14524,-0.335,-1.11,
slp2,DRSC00836,-0.215,1.18,
Ugt50B3,DRSC04778,-1.22,2.95,
Ugt50B3,DRSC21419,-0.992,1.07,
Rab35,DRSC20691,-0.00892,0.0393,
CG31230,DRSC22130,-0.0266,-1.05,
bon,DRSC16914,1.98,0.00201,
heix,DRSC03542,-0.88,0.885,
Crtp,DRSC04604,-3.1,-1.15,
Ucp4C,DRSC03132,1.54,0.00773,
Der-2,DRSC15021,-0.254,-1.7,
Cyp4p1,DRSC07372,0.143,0.577,
PGRP-LA,DRSC10327,0.00856,1.51,
PGRP-LA,DRSC10414,-0.195,-0.0936,
P5cr,DRSC16782,1.07,-0.116,

5 entries already listed, sorted by “droplet/nuclear area B-score, replicate 1”, low to high:
gene,dsRNA,"droplet/nuclear area B-score, replicate 1","droplet/nuclear area B-score, replicate 2","droplet/nuclear area B-score, replicate 3"
Ugt50B3,DRSC04778,-1.22,2.95,
CG12516,DRSC14524,-0.335,-1.11,
slp2,DRSC00836,-0.215,1.18,
lgs,DRSC17152,-0.174,,
Ilp1,DRSC10174,0.516,1.01,

The listing continues.
gene,dsRNA,"droplet/nuclear area B-score, replicate 1","droplet/nuclear area B-score, replicate 2","droplet/nuclear area B-score, replicate 3"
CG9917,DRSC20218,-0.822,-0.948,-0.0435
CG8028,DRSC20075,1.12,0.214,
Rab4,DRSC07524,0.122,-0.674,
Usp20-33,DRSC07196,0.00377,-1.26,
CG15404,DRSC00418,-1.56,0.874,
fit,DRSC15280,0.284,0.901,
CG13862,DRSC14712,-0.0359,0.956,
hlk,DRSC05021,0.424,0.0113,
hlk,DRSC05022,-1.01,-1.03,
MED25,DRSC14483,0.973,0.483,
MED25,DRSC22981,2.14,2.42,
S-Lap7,DRSC06374,-0.488,-0.149,
